Reference: the supplement of paper PMC6078165

Test system: MDAMB231
Assay: relative JC-1 red fluorescence (viability) vs pre-drug, coculture with fibroblast (fraction); higher = more viable cancer cells
Protocol: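 JC-1 labelled TNBC cells cocultured 1:1 (1,500 cells each) with CellTrace Violet stained primary or stromal fibroblasts in 384-well plates in FluoroBrite medium, treated with one of 42 anticancer drugs at 0.1, 1, 10 or 100 uM. JC-1 red fluorescence (mitochondrial integrity in cancer cells only) was read by plate reader every 8 h for 72 h. Values are normalised to each well's pre-drug value. The stock of one drug was tenfold lower, so its dose labels may be too high.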

N.N.[Cl][Pt][Cl] [Cisplatin]
relative JC-1 red fluorescence
Details | 8 h | 16 h | 24 h | 32 h | 40 h | 48 h | 56 h | 64 h | 72 h
0.1 µM, coculture fibroblast: C12385 | 0.7903 | 0.742 | 0.707 | 0.672 | 0.619 | 0.597 | 0.564 | 0.564 | 0.554
0.1 µM, coculture fibroblast: H6013 | 0.89 | 0.83 | 0.8 | 0.777 | 0.736 | 0.713 | 0.697 | 0.678 | 0.6331
0.1 µM, coculture fibroblast: H6019 | 0.728 | 0.6663 | 0.617 | 0.5887 | 0.539 | 0.525 | 0.484 | 0.464 | 0.435
0.1 µM, coculture fibroblast: H6076 | 0.873 | 0.789 | 0.7407 | 0.704 | 0.667 | 0.626 | 0.597 | 0.578 | 0.564
0.1 µM, coculture fibroblast: H6231 | 0.9088 | 0.811 | 0.739 | 0.679 | 0.63 | 0.596 | 0.562 | 0.541 | 0.522
0.1 µM, coculture fibroblast: HADF | 0.8754 | 0.8356 | 0.791 | 0.75 | 0.714 | 0.67 | 0.66 | 0.657 | 0.609
0.1 µM, coculture fibroblast: HCFa | 0.897 | 0.846 | 0.802 | 0.77 | 0.7301 | 0.672 | 0.6327 | 0.597 | 0.54
0.1 µM, coculture fibroblast: HCPF | 0.916 | 0.853 | 0.789 | 0.76 | 0.706 | 0.661 | 0.618 | 0.59 | 0.575
0.1 µM, coculture fibroblast: HHSteC | 0.8802 | 0.84 | 0.794 | 0.731 | 0.684 | 0.649 | 0.61 | 0.593 | 0.558
0.1 µM, coculture fibroblast: HMF | 0.848 | 0.767 | 0.7 | 0.649 | 0.601 | 0.5558 | 0.5246 | 0.511 | 0.501
0.1 µM, coculture fibroblast: HPFa | 0.9332 | 0.898 | 0.829 | 0.78 | 0.7537 | 0.712 | 0.66 | 0.627 | 0.57
0.1 µM, coculture fibroblast: HUF | 0.805 | 0.6956 | 0.697 | 0.587 | 0.521 | 0.509 | 0.461 | 0.458 | 0.439
0.1 µM, coculture fibroblast: Hs5 | 0.904 | 0.835 | 0.747 | 0.689 | 0.631 | 0.572 | 0.532 | 0.498 | 0.472
0.1 µM, coculture fibroblast: Hs27A | 0.877 | 0.811 | 0.765 | 0.734 | 0.678 | 0.604 | 0.613 | 0.598 | 0.559
0.1 µM, coculture fibroblast: Hs343T | 0.834 | 0.7717 | 0.704 | 0.677 | 0.625 | 0.578 | 0.531 | 0.512 | 0.487
0.1 µM, coculture fibroblast: WS1 | 0.7379 | 0.666 | 0.643 | 0.576 | 0.53 | 0.516 | 0.484 | 0.479 | 0.468
1 µM, coculture fibroblast: C12385 | 0.77 | 0.734 | 0.718 | 0.685 | 0.531 | 0.46 | 0.444 | 0.468 | 0.475
1 µM, coculture fibroblast: H6013 | 0.889 | 0.848 | 0.813 | 0.802 | 0.77 | 0.748 | 0.734 | 0.712 | 0.671
1 µM, coculture fibroblast: H6019 | 0.76 | 0.709 | 0.668 | 0.6287 | 0.586 | 0.5729 | 0.516 | 0.494 | 0.46
1 µM, coculture fibroblast: H6076 | 0.865 | 0.782 | 0.73 | 0.698 | 0.651 | 0.607 | 0.599 | 0.585 | 0.576
1 µM, coculture fibroblast: H6231 | 0.867 | 0.7852 | 0.713 | 0.683 | 0.629 | 0.605 | 0.581 | 0.566 | 0.541
1 µM, coculture fibroblast: HADF | 0.876 | 0.845 | 0.814 | 0.778 | 0.753 | 0.727 | 0.708 | 0.69367 | 0.6423
1 µM, coculture fibroblast: HCFa | 0.893 | 0.836 | 0.778 | 0.723 | 0.675 | 0.633 | 0.597 | 0.567 | 0.525
1 µM, coculture fibroblast: HCPF | 0.838 | 0.764 | 0.719 | 0.696 | 0.644 | 0.61 | 0.587 | 0.569 | 0.556
1 µM, coculture fibroblast: HHSteC | 0.8975 | 0.8696 | 0.826 | 0.778 | 0.749 | 0.712 | 0.677 | 0.658 | 0.621
1 µM, coculture fibroblast: HMF | 0.819 | 0.745 | 0.693 | 0.663 | 0.626 | 0.592 | 0.573 | 0.566 | 0.547
1 µM, coculture fibroblast: HPFa | 0.899 | 0.889 | 0.864 | 0.828 | 0.813 | 0.799 | 0.743 | 0.709 | 0.655
1 µM, coculture fibroblast: HUF | 0.821 | 0.7148 | 0.738 | 0.64 | 0.572 | 0.56 | 0.515 | 0.51 | 0.498
1 µM, coculture fibroblast: Hs5 | 0.87 | 0.796 | 0.736 | 0.676 | 0.632 | 0.5765 | 0.55 | 0.53383 | 0.5143
1 µM, coculture fibroblast: Hs27A | 0.8714 | 0.8471 | 0.7982 | 0.775 | 0.741 | 0.698 | 0.699 | 0.686 | 0.646
1 µM, coculture fibroblast: Hs343T | 0.844 | 0.75 | 0.691 | 0.655 | 0.596 | 0.542 | 0.5 | 0.483 | 0.455
1 µM, coculture fibroblast: WS1 | 0.724 | 0.661 | 0.597 | 0.543 | 0.493 | 0.464 | 0.4202 | 0.4139 | 0.39

The reference is the same well before dosing, and untreated signal decays as well.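 Fibroblast labels name human fibroblasts: mostly primary ones from tissues such as uterus (C12385, HUF), lung (H6013), bone (Hs27A), adrenal (HADF) and skin (WS1), plus mammary HMF and breast cancer-associated Hs343T. The cancer cells are basal-like or mesenchymal-like triple-negative breast cancer lines. The paper calls a changed response a hit when it shifts by more than 3x the replicate standard deviation. The tissue of the other fibroblasts is not given here.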
